These are yes or no findings as the source states them, for the method shown. Binding seen in cells or lysates may run through a third protein. Some entries that bind do so weakly or less than the wild type. Sequences can lack the tags named with a protein.
Target: T1, Sufu (inhibitor of fused) (mouse (endogenous in Hepa 1–6)) (UniProt Q9Z0P7)
T1 sequence: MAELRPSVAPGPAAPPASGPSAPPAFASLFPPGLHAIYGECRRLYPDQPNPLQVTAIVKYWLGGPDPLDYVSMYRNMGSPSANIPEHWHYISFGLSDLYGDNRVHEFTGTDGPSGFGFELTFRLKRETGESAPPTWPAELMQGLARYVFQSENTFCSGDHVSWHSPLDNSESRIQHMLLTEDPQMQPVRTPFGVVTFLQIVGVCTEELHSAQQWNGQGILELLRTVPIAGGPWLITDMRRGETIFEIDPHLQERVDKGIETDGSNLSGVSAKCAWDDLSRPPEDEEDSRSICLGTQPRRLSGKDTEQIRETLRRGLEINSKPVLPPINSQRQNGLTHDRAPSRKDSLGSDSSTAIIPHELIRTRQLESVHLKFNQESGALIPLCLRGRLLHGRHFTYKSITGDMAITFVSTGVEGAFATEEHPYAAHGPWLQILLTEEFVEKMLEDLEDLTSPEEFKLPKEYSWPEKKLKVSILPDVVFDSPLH
Test: co-IP; Hepa 1–6 cells with or without 400 pg/μL Shh for 24 h; whole-cell extracts in IP lysis buffer (20 mM Tris-HCl pH 7.5, 137 mM NaCl, 5 mM EDTA, 1% NP-40, 10% glycerol); antibody overnight at 4 °C, protein A/G plus agarose beads, western blot; which protein was precipitated is not told

Amino acid sequences for entries named in this document (tags omitted).
UniProt Q9WTL8: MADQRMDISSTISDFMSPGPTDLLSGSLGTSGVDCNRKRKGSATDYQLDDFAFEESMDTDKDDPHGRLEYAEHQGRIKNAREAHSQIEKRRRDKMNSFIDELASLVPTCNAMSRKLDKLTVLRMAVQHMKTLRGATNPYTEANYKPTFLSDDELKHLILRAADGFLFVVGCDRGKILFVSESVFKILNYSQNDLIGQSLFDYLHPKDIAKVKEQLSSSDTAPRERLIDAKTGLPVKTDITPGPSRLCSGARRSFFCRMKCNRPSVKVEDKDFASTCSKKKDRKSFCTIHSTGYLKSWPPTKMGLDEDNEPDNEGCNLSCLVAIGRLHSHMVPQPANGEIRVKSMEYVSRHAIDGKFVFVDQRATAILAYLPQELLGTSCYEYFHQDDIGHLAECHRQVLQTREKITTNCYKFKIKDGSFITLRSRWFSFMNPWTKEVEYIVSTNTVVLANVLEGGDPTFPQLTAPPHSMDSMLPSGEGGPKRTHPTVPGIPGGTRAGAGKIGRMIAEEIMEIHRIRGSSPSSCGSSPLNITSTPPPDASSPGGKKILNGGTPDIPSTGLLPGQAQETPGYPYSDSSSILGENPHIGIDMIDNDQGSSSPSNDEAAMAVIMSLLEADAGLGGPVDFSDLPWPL
UniProt P47806: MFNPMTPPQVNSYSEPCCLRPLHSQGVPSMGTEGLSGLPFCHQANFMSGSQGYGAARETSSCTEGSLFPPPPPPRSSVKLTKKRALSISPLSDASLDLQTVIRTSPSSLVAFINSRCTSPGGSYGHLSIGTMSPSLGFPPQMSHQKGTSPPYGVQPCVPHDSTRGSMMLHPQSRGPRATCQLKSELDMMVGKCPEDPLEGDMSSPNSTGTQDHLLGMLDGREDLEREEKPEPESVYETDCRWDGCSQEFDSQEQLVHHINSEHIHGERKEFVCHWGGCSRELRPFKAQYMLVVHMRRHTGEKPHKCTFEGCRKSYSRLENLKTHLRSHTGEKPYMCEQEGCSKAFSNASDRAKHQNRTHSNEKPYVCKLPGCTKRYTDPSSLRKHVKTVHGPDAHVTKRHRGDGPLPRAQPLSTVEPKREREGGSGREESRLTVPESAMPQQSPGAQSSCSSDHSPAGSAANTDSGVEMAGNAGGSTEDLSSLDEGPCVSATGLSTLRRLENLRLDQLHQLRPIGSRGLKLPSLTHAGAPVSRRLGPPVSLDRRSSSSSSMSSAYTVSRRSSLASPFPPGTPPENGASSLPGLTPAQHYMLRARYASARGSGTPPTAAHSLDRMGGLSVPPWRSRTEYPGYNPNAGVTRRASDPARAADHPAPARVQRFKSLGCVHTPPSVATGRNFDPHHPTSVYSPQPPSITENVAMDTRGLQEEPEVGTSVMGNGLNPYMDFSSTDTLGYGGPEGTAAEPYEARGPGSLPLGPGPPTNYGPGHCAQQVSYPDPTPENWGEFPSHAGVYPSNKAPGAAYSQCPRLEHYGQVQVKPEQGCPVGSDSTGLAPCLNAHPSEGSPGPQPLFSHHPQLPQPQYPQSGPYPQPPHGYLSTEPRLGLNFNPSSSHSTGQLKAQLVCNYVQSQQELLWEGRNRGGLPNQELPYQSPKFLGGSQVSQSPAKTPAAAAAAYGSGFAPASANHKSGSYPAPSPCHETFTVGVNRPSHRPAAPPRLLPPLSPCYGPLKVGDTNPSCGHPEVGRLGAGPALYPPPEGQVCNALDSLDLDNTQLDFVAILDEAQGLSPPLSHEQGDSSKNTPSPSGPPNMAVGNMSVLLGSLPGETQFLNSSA

Row | Substance | binding
1 | Bmal1 (brain and muscle ARNT-like 1) (from UniProt Q9WTL8 1-632) | binds
2 | Gli1 (from UniProt P47806 1-1111) | binds
